No constants are given. Whether binding was seen depends on the method and setting. Binding seen in cells or lysates may run through a third protein. Some entries that bind do so weakly or less than the wild type.

The chains behind the UniProt entries cited, without tags or fusion partners.
UniProt P49902: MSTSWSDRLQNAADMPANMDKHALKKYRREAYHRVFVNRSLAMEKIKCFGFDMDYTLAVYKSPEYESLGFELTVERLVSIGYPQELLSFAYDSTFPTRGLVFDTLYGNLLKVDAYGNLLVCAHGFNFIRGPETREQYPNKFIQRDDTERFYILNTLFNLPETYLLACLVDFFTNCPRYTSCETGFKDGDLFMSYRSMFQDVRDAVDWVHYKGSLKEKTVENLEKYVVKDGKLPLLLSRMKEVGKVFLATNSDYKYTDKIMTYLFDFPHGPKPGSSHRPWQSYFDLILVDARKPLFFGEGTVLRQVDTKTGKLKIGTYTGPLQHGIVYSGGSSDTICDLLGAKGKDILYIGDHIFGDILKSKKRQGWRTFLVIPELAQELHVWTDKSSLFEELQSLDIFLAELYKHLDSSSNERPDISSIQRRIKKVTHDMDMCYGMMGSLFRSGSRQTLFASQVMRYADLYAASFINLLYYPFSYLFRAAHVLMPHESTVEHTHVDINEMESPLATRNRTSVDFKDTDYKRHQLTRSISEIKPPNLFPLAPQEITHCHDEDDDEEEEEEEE
UniProt Q9NPP4: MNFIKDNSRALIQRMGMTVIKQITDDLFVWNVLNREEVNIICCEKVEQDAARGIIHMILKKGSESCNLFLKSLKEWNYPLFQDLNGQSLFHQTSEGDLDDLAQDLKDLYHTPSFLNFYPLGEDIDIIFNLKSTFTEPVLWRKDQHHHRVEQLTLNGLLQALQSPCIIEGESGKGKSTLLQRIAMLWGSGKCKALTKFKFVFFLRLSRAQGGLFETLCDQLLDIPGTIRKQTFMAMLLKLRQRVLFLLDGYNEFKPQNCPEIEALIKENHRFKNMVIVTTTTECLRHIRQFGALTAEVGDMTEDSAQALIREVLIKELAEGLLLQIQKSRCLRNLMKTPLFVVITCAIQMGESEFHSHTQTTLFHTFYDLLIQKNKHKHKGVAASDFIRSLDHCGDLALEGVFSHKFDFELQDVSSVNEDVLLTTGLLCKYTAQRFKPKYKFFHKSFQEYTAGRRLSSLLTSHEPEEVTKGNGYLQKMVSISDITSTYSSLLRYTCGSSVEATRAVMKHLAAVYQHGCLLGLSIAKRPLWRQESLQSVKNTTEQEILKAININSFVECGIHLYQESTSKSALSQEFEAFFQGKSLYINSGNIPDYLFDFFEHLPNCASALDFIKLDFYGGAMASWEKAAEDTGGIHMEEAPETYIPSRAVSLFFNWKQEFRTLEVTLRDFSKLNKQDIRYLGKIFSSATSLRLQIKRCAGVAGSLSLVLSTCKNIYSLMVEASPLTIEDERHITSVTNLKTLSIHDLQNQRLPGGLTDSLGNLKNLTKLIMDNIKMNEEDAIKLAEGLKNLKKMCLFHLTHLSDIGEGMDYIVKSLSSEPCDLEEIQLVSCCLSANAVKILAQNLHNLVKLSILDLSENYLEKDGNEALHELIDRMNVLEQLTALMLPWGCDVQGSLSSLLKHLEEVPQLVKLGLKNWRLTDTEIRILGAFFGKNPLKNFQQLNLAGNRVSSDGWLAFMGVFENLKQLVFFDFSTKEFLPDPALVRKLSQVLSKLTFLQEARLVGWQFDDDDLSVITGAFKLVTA

The target of assay [1] is Endogenous human cytosolic 5'-nucleotidase II (cN-II) (human (endogenous in HEK 293 T, A549, MDA-MB-231, MCF7)) (UniProt P49902). Kind of assay: proximity ligation; Duolink PLA with antibodies against cN-II and Ipaf in fixed A549 and MDA-MB-231 cells stably transfected with pScont or pScN-II (cN-II knock-down); both proteins endogenous.
Assay [2] has the same target. The assay can be described thus: co-IP; HEK 293 T lysate (20 mM Tris-HCl pH 6.8, 1 mM MgCl2, 2 mM EGTA, 0.5% NP40); endogenous cN-II immunoprecipitated with anti-cN-II (clone 3C1); transfected Ipaf forms detected with anti-GFP.
The target is the same in assay [3]. Kind of assay: proximity ligation; Duolink PLA with antibodies against cN-II and Ipaf in fixed MCF7 cells transiently co-transfected with pEZ-M02-Ipaf and pEGFP-C1 (10:1); GFP-positive cells analysed.

As to “Endogenous Ipaf in A549 and MDA-MB-231 cells (from UniProt Q9NPP4 1-1024)”, in assay [1], the binding result is “binds”.
“Ipaf fused to YFP (pEZ-M15-YFP/Ipaf) (from UniProt Q9NPP4 1-1024)”: in assay [2], the binding entry is reported as “binds”.
For “Whole Ipaf expressed from pEZ-M02-Ipaf (from UniProt Q9NPP4 1-1024)”, the binding entry in assay [3] is “binds”.

Source of the values: PMC4374842.
